The values that follow come from paper PMC8408604.

The experiment has as its target T1, TAP-PSF-1 (PSF-1 subunit of GINS with the tandem affinity purification tag) (C. elegans) (UniProt Q22019).
T1 sequence: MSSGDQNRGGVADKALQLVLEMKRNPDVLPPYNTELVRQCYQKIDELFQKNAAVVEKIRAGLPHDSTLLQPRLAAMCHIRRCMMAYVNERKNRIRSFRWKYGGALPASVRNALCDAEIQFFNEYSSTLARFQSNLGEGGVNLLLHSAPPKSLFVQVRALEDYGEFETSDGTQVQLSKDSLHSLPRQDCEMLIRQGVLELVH
Briefly: co-IP; Figs 5 and EV4C: extracts of embryos of TAP-psf-1 worms (npl-4 RNAi; with or without ctf-4 or clsp-1 RNAi, tipn-1 RNAi, ctf-4∆), nuclease-digested; TAP-PSF-1 on IgG-coupled magnetic beads, released with TEV protease; immunoblot.

No constants are given. Whether binding was seen depends on the method and setting. In cells and extracts the contact can be indirect. Some binding calls cover weakened binding; strength is not graded here. Tags and fused reporters may be left off the sequences shown.

B1: MCM-2, endogenous in C. elegans embryos (protein, UniProt Q9XXI9 1-881)
chain: MADRANNDDDVDRQPLPIADDADDDVDGIDEMFNNEDEDPEDEEGENLFGDDMERDYREQPELDQYSESGMDDASDVGSLSVSARRAAEREMAQRDQLLDDDALMYEDGDSEEVDTRRRGRGRRGRGDAADDDSVPMEEEDIPVDILENIRGRTIRDHVSDEAVAKEIERRFKNFLRSFHEPGNKQTKYIQMIKSMAADNRESLEVSFTDLSDDNGEQNISYFLPEAPNEMLAIMDRAATEVVMNMYPFYSRVCNEIKVRISQLPVEEDIRMLRQVHLNMLIRTAGVVTIASGILPQLAVVKYDCVACGYLLGPFVQQNDEEVRPTICPSCQGKGPFELNVENTVYHNYQRITMQESPNKVAAGRLPRSKDVILLGDLCDSCKPGDEIEVTGVYTNNFDGSLNYKQGFPVFNTLIHANHITNKDKMASDQLTDEDIKAIRELSQDPNISQRVFSSIAPSIYGHDDVKRAIALALFRGEAKNPGAKHRLRGDINVLLCGDPGTAKSQFLRYAAHIAPRSVLTTGQGASAVGLTAYVQRHPVTREWTLEAGAMVLADKGVCLIDEFDKMSDQDRTSIHEAMEQQSISISKAGIVTSLHARCTVIAASNPIGGRYNPTRTFAENVDLTEPILSRFDVLCVIRDSVDSVEDERLAKFVVGNHRTHHPDAKKIVKEGDELEEDQMDERTGVRLIPQDLLRKYIIYAREKCHPTLPEQHSEKFSNIFAQMRKESMATGSVAITVRHVESMIRLSEAHAKLHLRSYVNDEDCAAAIRVMLESFVNTQKASIMRMMKKTFSRHLTENRSANELLLFILKQLIRQQMHYATARAAAGTILQSVTIPESEFIEKAQQLRIENVKPFYTSEIFASNNFLYDPSKKTIVQEIF
As for B1, the binding result is reported as “binds”.
